# Some of the results follow.
# B1: Pbx2CASH domain (Cryptococcus neoformans) (protein)
# chain: GIPGPNRLYRLSGPIIFTAADQEIATYGYPTGSERAVLRVEGRNTATAIQGDCRRCARVSVKNLVVDGNRKKLGRMRDFQLATGLVVLGGNEGQSIQNSWIKNPRGFTAIHIREGDKLQCSGARVEKNEIGPVGEEYDPEKDGDDPEMSPLGRPLADGVSIACRDSFIRDNTFRDNTDAAIVVYCSPGTLIHA
# Assays:
# Experiment in all cases: glycan array binding signal (z-score within array); higher = stronger binding
# Conditions in all cases: glycan notation: IUPAC condensed, linker removed
# [1] = molecular target: Fuc(a1-2)Gal
# Procedure, shortened: (§1)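 Arrays were curated from the Consortium for Functional Glycomics database, 3228 in total, and kept only where the protein sequence was available. Binding is expressed as a within-array Z-score. This score was averaged across arrays of the same protein sequence at different concentrations or buffers and across linkers, and negative values can be read as non-binding.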
# [2] = molecular target: Fuc(a1-2)Gal(b1-3)GalNAc
# Procedure, shortened: as §1
# [3] = molecular target: Fuc(a1-2)Gal(b1-3)GalNAc(a1-3)[Fuc(a1-2)]Gal(b1-4)Glc
# Procedure, shortened: as §1
# [4] = molecular target: Fuc(a1-2)Gal(b1-3)GalNAc(a1-3)[Fuc(a1-2)]Gal(b1-4)GlcNAc
# Procedure, shortened: as §1
# [5] = molecular target: Fuc(a1-2)Gal(b1-3)GalNAc(b1-3)Gal
# Procedure, shortened: as §1
# [6] = molecular target: Fuc(a1-2)Gal(b1-3)GalNAc(b1-3)Gal(a1-4)Gal(b1-4)Glc
# Procedure, shortened: as §1
# [7] = molecular target: Fuc(a1-2)Gal(b1-3)GalNAc(b1-4)[Neu5Ac(a2-3)]Gal(b1-4)Glc
# Procedure, shortened: as §1
# [8] = molecular target: Fuc(a1-2)Gal(b1-3)GlcNAc
# Procedure, shortened: as §1
# [9] = molecular target: Fuc(a1-2)Gal(b1-3)GlcNAc(b1-2)Man(a1-3)[Fuc(a1-2)Gal(b1-3)GlcNAc(b1-2)Man(a1-6)]Man(b1-4)GlcNAc(b1-4)GlcNAc
# Procedure, shortened: as §1
# [10] = molecular target: Fuc(a1-2)Gal(b1-3)GlcNAc(b1-2)Man(a1-3)[Fuc(a1-2)Gal(b1-3)GlcNAc(b1-2)Man(a1-6)]Man(b1-4)GlcNAc(b1-4)[Fuc(a1-6)]GlcNAc
# Procedure, shortened: as §1
# [11] = molecular target: Fuc(a1-2)Gal(b1-3)GlcNAc(b1-3)Gal(b1-4)Glc
# Procedure, shortened: as §1
# [12] = molecular target: Fuc(a1-2)Gal(b1-3)GlcNAc(b1-3)GalNAc
# Procedure, shortened: as §1
# [13] = molecular target: Fuc(a1-2)Gal(b1-3)GlcNAc(b1-3)[Fuc(a1-2)Gal(b1-3)GlcNAc(b1-6)]GalNAc
# Procedure, shortened: as §1
# [14] = molecular target: Fuc(a1-2)Gal(b1-3)GlcNAc(b1-3)[Gal(b1-4)GlcNAc(b1-6)]Gal(b1-4)Glc
# Procedure, shortened: as §1
# [15] = molecular target: Fuc(a1-2)Gal(b1-3)GlcNAc(b1-3)[Neu5Ac(a2-6)Gal(b1-4)GlcNAc(b1-6)]Gal(b1-4)Glc
# Procedure, shortened: as §1
# [16] = molecular target: Fuc(a1-2)Gal(b1-3)GlcNAc6S
# Procedure, shortened: as §1
# [17] = molecular target: Fuc(a1-2)Gal(b1-3)[Fuc(a1-4)]GlcNAc
# Procedure, shortened: as §1
# [18] = molecular target: Fuc(a1-2)Gal(b1-3)[Fuc(a1-4)]GlcNAc(b1-2)Man(a1-3)[Fuc(a1-2)Gal(b1-3)[Fuc(a1-4)]GlcNAc(b1-2)Man(a1-3)]Man(b1-4)GlcNAc(b1-4)GlcNAc
# Procedure, shortened: as §1
# [19] = molecular target: Fuc(a1-2)Gal(b1-3)[Fuc(a1-4)]GlcNAc(b1-2)Man(a1-3)[Fuc(a1-2)Gal(b1-3)[Fuc(a1-4)]GlcNAc(b1-2)Man(a1-6)]Man(b1-4)GlcNAc(b1-4)[Fuc(a1-6)]GlcNAc(b1-4)[Fuc(a1-6)]GlcNAc
# Procedure, shortened: as §1
# [20] = molecular target: Fuc(a1-2)Gal(b1-3)[Fuc(a1-4)]GlcNAc(b1-3)[Fuc(a1-3)[Gal(b1-4)]GlcNAc(b1-6)]Gal(b1-4)Glc
# Procedure, shortened: as §1
# [21] = molecular target: Fuc(a1-2)Gal(b1-3)[Fuc(a1-4)]GlcNAc(b1-3)[Gal(b1-4)GlcNAc(b1-6)]Gal(b1-4)Glc
# Procedure, shortened: as §1
# [22] = molecular target: Fuc(a1-2)Gal(b1-4)Glc
# Procedure, shortened: as §1
# [23] = molecular target: Fuc(a1-2)Gal(b1-4)Glc6S
# Procedure, shortened: as §1
# [24] = molecular target: Fuc(a1-2)Gal(b1-4)GlcNAc
# Procedure, shortened: as §1
# [25] = molecular target: Fuc(a1-2)Gal(b1-4)GlcNAc(b1-2)Man
# Procedure, shortened: as §1
# [26] = molecular target: Fuc(a1-2)Gal(b1-4)GlcNAc(b1-2)Man(a1-3)[Fuc(a1-2)Gal(b1-4)GlcNAc(b1-2)Man(a1-6)]Man(b1-4)GlcNAc(b1-4)GlcNAc
# Procedure, shortened: as §1
# [27] = molecular target: Fuc(a1-2)Gal(b1-4)GlcNAc(b1-2)Man(a1-3)[Fuc(a1-2)Gal(b1-4)GlcNAc(b1-2)Man(a1-6)]Man(b1-4)GlcNAc(b1-4)[Fuc(a1-6)]GlcNAc
# Procedure, shortened: as §1
# [28] = molecular target: Fuc(a1-2)Gal(b1-4)GlcNAc(b1-2)[Fuc(a1-2)Gal(b1-4)GlcNAc(b1-4)]Man(a1-3)[Fuc(a1-2)Gal(b1-4)GlcNAc(b1-2)Man(a1-6)]Man(b1-4)GlcNAc(b1-4)GlcNAc
# Procedure, shortened: as §1
# [29] = molecular target: Fuc(a1-2)Gal(b1-4)GlcNAc(b1-3)Gal(b1-4)GlcNAc
# Procedure, shortened: as §1
# [30] = molecular target: Fuc(a1-2)Gal(b1-4)GlcNAc(b1-3)Gal(b1-4)GlcNAc(b1-2)Man(a1-3)[Fuc(a1-2)Gal(b1-4)GlcNAc(b1-3)Gal(b1-4)GlcNAc(b1-2)Man(a1-6)]Man(b1-4)GlcNAc(b1-4)GlcNAc
# Procedure, shortened: as §1
# [31] = molecular target: Fuc(a1-2)Gal(b1-4)GlcNAc(b1-3)Gal(b1-4)GlcNAc(b1-3)Gal(b1-4)GlcNAc
# Procedure, shortened: as §1
# [32] = molecular target: Fuc(a1-2)Gal(b1-4)GlcNAc(b1-3)GalNAc
# Procedure, shortened: as §1
# [33] = molecular target: Fuc(a1-2)Gal(b1-4)GlcNAc(b1-3)[Fuc(a1-2)Gal(b1-4)GlcNAc(b1-6)]GalNAc
# Procedure, shortened: as §1
# [34] = molecular target: Fuc(a1-2)Gal(b1-4)GlcNAc(b1-3)[Fuc(a1-3)[Gal(b1-4)]GlcNAc(b1-6)]Gal(b1-4)Glc
# Procedure, shortened: as §1
# [35] = molecular target: Fuc(a1-2)Gal(b1-4)GlcNAc(b1-6)GalNAc
# Procedure, shortened: as §1
# [36] = molecular target: Fuc(a1-2)Gal(b1-4)GlcNAc6S
# Procedure, shortened: as §1
# [37] = molecular target: Fuc(a1-2)Gal(b1-4)[Fuc(a1-3)]GlcNAc
# Procedure, shortened: as §1
# [38] = molecular target: Fuc(a1-2)Gal(b1-4)[Fuc(a1-3)]GlcNAc(b1-2)Man(a1-3)[Fuc(a1-2)Gal(b1-4)[Fuc(a1-3)]GlcNAc(b1-2)Man(a1-6)]Man(b1-4)GlcNAc(b1-4)[Fuc(a1-6)]GlcNAc
# Procedure, shortened: as §1
# [39] = molecular target: Fuc(a1-2)Gal(b1-4)[Fuc(a1-3)]GlcNAc(b1-2)[Fuc(a1-2)Gal(b1-4)[Fuc(a1-3)]GlcNAc(b1-4)]Man(a1-3)[Fuc(a1-2)Gal(b1-4)[Fuc(a1-3)]GlcNAc(b1-2)Man(a1-6)]Man(b1-4)GlcNAc(b1-4)GlcNAc
# Procedure, shortened: as §1
# [40] = molecular target: Fuc(a1-2)Gal(b1-4)[Fuc(a1-3)]GlcNAc(b1-3)Gal(b1-4)[Fuc(a1-3)]GlcNAc
# Procedure, shortened: as §1
# [41] = molecular target: Fuc(a1-2)Gal(b1-4)[Fuc(a1-3)]GlcNAc(b1-3)Gal(b1-4)[Fuc(a1-3)]GlcNAc(b1-3)Gal(b1-4)[Fuc(a1-3)]GlcNAc
# Procedure, shortened: as §1
# [42] = molecular target: Fuc(a1-2)Gal(b1-4)[Fuc(a1-3)]GlcNAc(b1-3)GalNAc
# Procedure, shortened: as §1
# [43] = molecular target: Fuc(a1-2)Gal(b1-4)[Fuc(a1-3)]GlcNAc(b1-3)[Neu5Ac(a2-6)Gal(b1-4)GlcNAc(b1-6)]Gal(b1-4)Glc
# Procedure, shortened: as §1
# [44] = molecular target: Fuc(a1-2)Gal3S(b1-4)GlcNAc
# Procedure, shortened: as §1
# [45] = molecular target: Fuc(a1-2)Gal6S(b1-3)GlcNAc
# Procedure, shortened: as §1
binder,measurement,setting,value
B1,glycan array binding signal (z-score),[1],-0.39
same,glycan array binding signal (z-score),[2],-0.701
same,glycan array binding signal (z-score),[3],-0.168
same,glycan array binding signal (z-score),[4],0.239
same,glycan array binding signal (z-score),[5],-0.599
same,glycan array binding signal (z-score),[6],-0.687
same,glycan array binding signal (z-score),[7],-0.327
same,glycan array binding signal (z-score),[8],-0.432
same,glycan array binding signal (z-score),[9],0.289
same,glycan array binding signal (z-score),[10],-0.372
same,glycan array binding signal (z-score),[11],-0.355
same,glycan array binding signal (z-score),[12],0.638
same,glycan array binding signal (z-score),[13],0.475
same,glycan array binding signal (z-score),[14],-0.52
same,glycan array binding signal (z-score),[15],-0.145
same,glycan array binding signal (z-score),[16],0.599
same,glycan array binding signal (z-score),[17],-0.752
same,glycan array binding signal (z-score),[18],0.448
same,glycan array binding signal (z-score),[19],0.191
same,glycan array binding signal (z-score),[20],-0.439
same,glycan array binding signal (z-score),[21],-0.27
same,glycan array binding signal (z-score),[22],-0.35
same,glycan array binding signal (z-score),[23],-0.514
same,glycan array binding signal (z-score),[24],-0.76
same,glycan array binding signal (z-score),[25],-0.067
same,glycan array binding signal (z-score),[26],0.431
same,glycan array binding signal (z-score),[27],0.625
same,glycan array binding signal (z-score),[28],0.106
same,glycan array binding signal (z-score),[29],-0.675
same,glycan array binding signal (z-score),[30],-0.142
same,glycan array binding signal (z-score),[31],-0.508
same,glycan array binding signal (z-score),[32],-0.699
same,glycan array binding signal (z-score),[33],0.278
same,glycan array binding signal (z-score),[34],1.7
same,glycan array binding signal (z-score),[35],0.269
same,glycan array binding signal (z-score),[36],-0.276
same,glycan array binding signal (z-score),[37],-0.029
same,glycan array binding signal (z-score),[38],0.668
same,glycan array binding signal (z-score),[39],0.686
same,glycan array binding signal (z-score),[40],0.187
same,glycan array binding signal (z-score),[41],0.29
same,glycan array binding signal (z-score),[42],5.37
same,glycan array binding signal (z-score),[43],0.299
same,glycan array binding signal (z-score),[44],-0.636
same,glycan array binding signal (z-score),[45],0.95

# Part of the list above in a different format:
binder	measurement	setting	value
B1	glycan array binding signal (z-score)	[1]	-0.39
same	glycan array binding signal (z-score)	[10]	-0.372
same	glycan array binding signal (z-score)	[14]	-0.52
same	glycan array binding signal (z-score)	[15]	-0.145
same	glycan array binding signal (z-score)	[16]	0.599
same	glycan array binding signal (z-score)	[17]	-0.752
same	glycan array binding signal (z-score)	[20]	-0.439
same	glycan array binding signal (z-score)	[24]	-0.76
same	glycan array binding signal (z-score)	[25]	-0.067
same	glycan array binding signal (z-score)	[31]	-0.508
same	glycan array binding signal (z-score)	[34]	1.7
same	glycan array binding signal (z-score)	[42]	5.37

# From the supplement of paper PMC8728848
